This experiment concerns the target T1, biotinylated Podocalyxin partial tail peptide … (including the ezrin binding site) (chicken).
T1 sequence (peptide, biotin, with a spacer (end not stated)): HQRFSQKKSQQRLTEELQ
The experiment is described as follows: pull-down; biotinylated Podocalyxin peptides (4.3 nmol) bound to streptavidin-sepharose, incubated 2 hours at 4°C with GST-N'ezrin (equimolar to 20 µg GST) in 150 mM NaCl, 20 mM Tris (pH7), 0.2% Triton X-100; bound protein detected by anti-GST Western blot; both purified. (In general: A western blot detects proteins with antibodies after separation by electrophoresis.)

These are yes or no findings as the source states them, for the method shown. Binding calls can cover weak binding; strength is not graded here.

In the case of “GST-N'ezrin (N-terminal domain of ezrin fused with GST) (domain or fragment)”, the binding entry is “binds”.

Source of the values: publication PMC1796660.
